Patent US5462861A, “Method for improving enzyme activities with noble gases” (American Air Liquide, Chicago Research Center, priority 1993, dated 1995)

System: β-glucosidase
Experiment: Kinetic analyses, β-glucosidase
Format: biochemical
Details: [S] = 60 micrograms/ml
Method: Absorbance curve data as previously exemplified reveal differences in enzymatic activity under different gas atmospheres both in terms of yield and in terms of rate. Yield can be calculated after equilibrium is reached by comparative curve differencing, and through formal linearization and calculation--which are also necessary for rate calculations. Rate differences are calculated using commercially available computer programs (ENZFITTER, GRAFIT, ENZPACK, PEAKFIT) which transform the initial uv/vis absorbance data curve (in these examples, a power curve) into straight lines (linear regression of power curve). These lines may be expressed as a mathematical equation in which the slope is approximately the rate, and the limit Y-intercept is approximately the yield. […] The examples and figures described below represent these steps in exemplary form.
Table 1 illustrates Michaelis-Menten enzyme kinetics calculations of Vmax and Km, and the rates for each reaction. Vmax is the limiting rate, Km is the Michaelis-Menten constant.
FIG. 46 and Table 2 illustrate the same as FIG. 45 and Table 1, however, for xenon reactions. It is readily apparent that the Vmax and Km for xenon are larger.
FIG. 47, Table 3, FIG. 48 and Table 4 illustrate the first-order power curve regression rate linear transformations for the above air and xenon gassed reactions, showing an approximation to the Michaelis-Menten data, wherein the Xe/Air rate relationship is in the same ratio as above.
FIG. 49, FIG. 50 and Table 5 illustrate the same first-order rate approximation regression linearizations for all gases studied in this run.

In the case of [Xe] [Xe, xenon], the “Abs [S3]” value (Time 0.0000) is reported as 0.1261, the “Abs [S3]” value (Time 15.0000) is reported as 0.1590 and the “Abs [S3]” value (Time 30.0000) is reported as 0.1928. For the same compound, the “Abs [S3]” value (Time 45.0000) was 0.2217, the “Abs [S3]” value (Time 60.0000) was 0.2514 and the “Abs [S3]” value (Time 75.0000) was 0.2811. The “Abs [S3]” value (Time 90.0000) was 0.3085, the “Abs [S3]” value (Time 105.0000) was 0.3349 and the “Abs [S3]” value (Time 120.0000) was 0.3608. For the same compound, the “Abs [S3]” value (Time 135.0000) was 0.3831, the “Abs [S3]” value (Time 150.0000) was 0.4065 and the “Abs [S3]” value (Time 165.0000) was 0.4300. For the same compound, the “Abs [S3]” value (Time 180.0000) was 0.4511, the “Abs [S3]” value (Time 195.0000) was 0.4719 and the “Abs [S3]” value (Time 210.0000) was 0.4940. For the same compound, the “Abs [S3]” value (Time 225.0000) was 0.5112, the “Abs [S3]” value (Time 240.0000) was 0.5311 and the “Abs [S3]” value (Time 255.0000) was 0.5503. The “Abs [S3]” value (Time 270.0000) was 0.5675, the “Abs [S3]” value (Time 285.0000) was 0.5842 and the “Abs [S3]” value (Time 300.0000) was 0.6011. For the same compound, the “Abs [S3]” value (Time 315.0000) was 0.6165, the “Abs [S3]” value (Time 330.0000) was 0.6313 and the “Abs [S3]” value (Time 345.0000) was 0.6460. The “Abs [S3]” value (Time 360.0000) was 0.6588, the “Abs [S3]” value (Time 375.0000) was 0.6711 and the “Abs [S3]” value (Time 390.0000) was 0.6834.
